From PMC10694292, “Increased sinusoidal export of drug glucuronides is a compensative mechanism in liver cirrhosis of mice” (Frontiers in Pharmacology, 2023)
Where two headings read alike, the source gives them in different places.

How the values were obtained:
[1] = isolated perfused rat liver; ref Evans et al., 1999; cited from earlier work
[2] = Drug cocktail i.v. in CCl4-cirrhotic and control mice: plasma concentrations and AUC; conditions: 15-120 min after cocktail; prediction with CYP activity at 11%
[3] = human, cited from earlier work

Row | Compound | Fraction formed in the hepatocytes excreted to bile [1] | Measured plasma concentrations in cirrhotic mice vs PBPK-predicted concentrations [2] | Fraction unbound ([3]; DrugBank, ref Wishart et al., 2017) | Fraction unbound ([3]; experimental, ref Vree and Verwey-van Wissen) | Fraction unbound ([3]; albumin, ref Edginton et al., 2006)
1 | CN1CC[C@]23c4c5ccc(O[C@@H]6O[C@H](C(=O)O)[C@@H](O)[C@H](O)[C@H]6O)c4O[C@H]2[C@@H](O)C=C[C@H]3[C@H]1C5 [M3G, morphine-3-glucuronide] | 0.3-0.5 | much higher | 0.9 |  | 
2 | CN1CC[C@]23c4c5ccc(O)c4O[C@H]2[C@@H](O)C=C[C@H]3[C@H]1C5 [Morphine, morphine] |  |  |  | 0.535 | 0.75
